Laboratory results reported in PubChem BioAssay AID504594 (Broad Institute, 2011).
“And” between values parts separate entries of the source, which are not always exact repeats. Equal values may be shown once. The whole screen tested about 2,000 compounds, of which fewer than 10 were called active.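 The calls were made as follows: active = growth inhibition of at least 75% in every replicate, which also brings the mean inhibition to 75% or more; inconclusive = mean inhibition 75% or more but some replicate under 75%; inactive = the rest.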 The list shows a part of the results.

assay: growth inhibition of PfHsp90-dependent yeast, primary screen, antimalarial PfHsp90 inhibitor project, S. cerevisiae, BacTiter-Glo luminescence (AID 504594);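 also: 0% = DMSO neutral control wells and 100% = 20 µM radicicol control wells; higher value means stronger growth inhibition because the sign is flipped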; settings: S. cerevisiae expressing PfHsp90, BacTiter-Glo growth, 48 h; at 9.4 µM; hits give high values

Growth inhibition, inactive:
Cn1cc(CN(CCO)Cc2cccs2)c(-c2cccc(Cl)c2)n1 -3.65%
CC[N+](C)(C)c1cccc(O)c1 -5.71%
COc1ccc(C(=O)NCC2OCCc3ccccc32)cc1 (stereo unspecified) -3.22%
CCCCN(CCCC)CCCOC(=O)c1ccc(N)cc1 2.37%
O=C(NCc1ccc2c(c1)OCO2)c1ccc2c(c1)OCCO2 -10.6%
O=C(O)CCCCCCCC(=O)O -4.17%
O=C(NC(=S)Nc1ccc2c(c1)OCCO2)c1ccccc1F 11.3%
NS(=O)(=O)c1cc(C2(O)NC(=O)c3ccccc32)ccc1Cl (stereo unspecified) -8.46%
COc1ccc(NC(=O)C2CCCN2C(=O)OC(C)(C)C)cc1 (stereo unspecified) -4.53%
CC(=O)Nc1ccc(OS(=O)(=O)c2c(C)cc(C)cc2C)cc1 10.9%
CC(=O)OCC(=O)[C@@]1(O)CC[C@H]2[C@@H]3CCC4=CC(=O)CC[C@]4(C)[C@H]3[C@@H](O)C[C@@]21C -11%
COc1ccc(OC)c(-c2oc3ccccc3c(=O)c2O)c1 -8.17%
Cc1nc2ccccc2c(=O)n1N -6.14%
N#CCC(N)=C(C#N)C#N 3.45%
CCN(CC)CCOC(=O)C1(C2CCCCC2)CCCCC1 -2.13%
CN(C)CCCN1c2ccccc2Sc2ccc(C(F)(F)F)cc21 2.24%
Cc1ccc2c(c1)c1c(n2C)C(=O)CCC1 10.2%
CCNC1=C(Cl)C(=O)c2ccccc2C1=O -6.29%
COc1c(O)ccc2c1CN1CCc3cc4c(cc3C1C2)OCO4 (stereo unspecified) -1.12%
COC(=O)C1=C(C)NC(C)=C([N+](=O)[O-])C1c1ccccc1C(F)(F)F (stereo unspecified) -11%
Nc1ccc(-c2nc3ncccc3o2)c(Cl)c1 -2.71%
O=C1C2CC=C(Cl)CC2C(=O)N1CCc1c[nH]c2ccccc12 (stereo unspecified) 17.8%
CCn1cc(CN2N=C(C)CC2c2ccccc2)c(C)n1 (stereo unspecified) 4.11%
CC[N+](C)(CC)CCOC(=O)C(O)(c1ccccc1)C1CCCCC1 (stereo unspecified) -1.82%
CCOc1ccccc1Oc1coc2cc(OCC(=O)O)ccc2c1=O -4.8%
C/C=C/c1ccc(OCCCCN2CC(C)CC(C)C2)c(OC)c1 (stereo unspecified) 8.04%
O=C(Cc1ccc(Br)cc1)c1ccc(O)cc1O -5.8%
COc1cc(/C=C/C(=O)O)cc(S(=O)(=O)NCCCO)c1OC 9.49%
CN(C)c1ccc(C(CN)c2c[nH]c3ccccc23)cc1 (stereo unspecified) 2.99%
O=C(NC(=S)Nc1ccc(N2CCN(C(=O)c3ccccc3)CC2)cc1)c1cccs1 6.16%
COc1ccc2[nH]c(=O)c3c(c2c1)OC(C)(C)C=C3 21.2%
Cc1ccc(-c2nnc(-c3ccc4c(c3)OCO4)o2)cc1 -1.21%
O=C(O)Cc1ccc(-c2ccccc2)cc1 -3.02%
CCOC(=O)C1=C2c3ccc4ccccc4c3CC(C)(C)N2C(=O)C1=O -0.655%
C[C@@H]1C[C@H]2[C@@H]3C[C@H](F)C4=CC(=O)C=C[C@]4(C)[C@@]3(F)[C@@H](O)C[C@]2(C)[C@@]1(O)C(=O)CO 2.68%
O=C(/C=C/c1ccc(F)cc1)N1CC[C@@]2(O)CCCC[C@H]2C1 1.03%
O=C1N=c2ccccc2=C1c1[nH]c(=S)[nH]c1O -4.23%
COc1ccccc1N1C(=O)C2CC(C)=C(C)CC2C1=O (stereo unspecified) 4.44%
O=C1C(O)CC2c3ccccc3CC3(CCCC3)N12 (stereo unspecified) -7.1%
CCCCCCCCCC(=O)OCC(O)CO (stereo unspecified) -11.4%
CN1CCN(C2=Nc3ccccc3Oc3ccc(Cl)cc32)CC1 2.19%
Cc1cccc(N2C(=O)C3C(c4ccccc4)OC4(C(=O)c5ccccc5C4=O)C3C2=O)c1 (stereo unspecified) -4.85%
Cc1c(Cc2ccccc2)c(=O)oc2c(CN(C)C)c(O)c(Cl)cc12 -2.33%
COc1ccc(-c2cc(=O)oc3cc(OC(C)C(=O)O)ccc23)cc1 (stereo unspecified) -0.213%
COC(=O)[C@H]1[C@H]2C[C@@H]3c4[nH]c5cc(OC)ccc5c4CCN3C[C@H]2C[C@@H](OC(=O)c2ccc(N)cc2)[C@@H]1OC -9.87%
CC(C)CC(NC(=O)CNC(=O)C1O[C@@H]2OC(C)(C)O[C@@H]2[C@H]2OC(C)(C)O[C@@H]12)C(=O)O (stereo partly specified) 2.68%
COc1ccc2c(C=O)cn(C)c2c1 -2.92%
CSCC[C@H](NC(=O)NC1CCCC1)C(=O)O -15.5%
CC(=O)C1=C(NC(=O)c2ccc(C(F)(F)F)cc2)C[C@@H]2[C@H]1C2(C)C -3.86%
COc1ccc(CC(=O)Nc2cccc(C(=O)Nc3ccccc3C(=O)O)c2)cc1OC -0.658%
O=C(O)C1CSC(c2ccco2)N1 (stereo unspecified) -10.3%
CC(C)(C)N1NC2(CCCCC2)NC1=S -6.24%
Cc1cc(=O)oc2c(CN(C)Cc3ccccc3)c(O)ccc12 -5.11%
O=C(O)c1ccc(-c2ccc(O)c(F)c2)cc1 -3.08%
NC(=O)C1CCCNC1 (stereo unspecified) -14.5%
CCCCOn1c(C)c(C(C)=O)c2c3no[n+]([O-])c3ccc21 -14.4%
CC(C)COC(=O)C1C(=O)CC(C)(O)C(C(=O)OCC(C)C)C1c1cccnc1 (stereo unspecified) 7.28%
Nc1nc(Cl)nc2c1ncn2[C@@H]1O[C@H](CO)[C@@H](O)[C@H]1O -0.0217%
CCOC(=O)c1oc2cc(O)cc(C)c2c(=O)c1-c1cscn1 7.26%
COc1ccc(N2C(=O)C3C(C2=O)C(C(=O)c2ccccc2)N2CCCC32)cc1 (stereo unspecified) 3.07%
COc1cccc(C2CCCN2Cc2nc(CCC(C)C)no2)c1 (stereo unspecified) 11.4%
O=C1N[C@@H](Cc2cnc[nH]2)C(=O)N2CCC[C@@H]12 1.69%
C[C@@H]1C[C@H]2[C@@H]3CCC4=CC(=O)C=C[C@]4(C)[C@@]3(F)[C@@H](O)C[C@]2(C)[C@@]1(O)C(=O)COP(=O)(O)O 19.7%
COc1ccc(C(=O)NC(=O)NC2(C(Cl)(Cl)Cl)OCCO2)cc1 -0.449%
Cc1ccc(CSCC(=O)NCCCN2CCOCC2)cc1 -3.11%
CC(=O)C1=C(Nc2ccc(C)cc2)CC(C)(O)C(C(C)=O)C1c1ccco1 (stereo unspecified) -8.53%
O=[N+]([O-])c1ccc2cn[nH]c2c1 -6.28%
CCn1c(=N)c(C(=O)NC)cc2c(=O)n3cccc(C)c3nc21 10.4%
OCCN(CCO)c1nc(N2CCCCC2)c2nc(N(CCO)CCO)nc(N3CCCCC3)c2n1 -3.45%
Cc1ccc(C2CC(=O)C(C=NCCN3CCN(CC(=O)Nc4cc(C)cc(C)c4)CC3)=C(O)C2)cc1 (stereo unspecified) 5.52%
CC(C)C12CN3CC(C(C)C)(CN(C1)C3c1ccccc1)C2O (stereo unspecified) 12.1%
CCOC(=O)COc1ccc2c(=O)c(-c3ccccc3)coc2c1 0.717%
NC(N)=NC(=O)c1nc(Cl)c(N)nc1N -0.187%
CC(=O)CCc1oc2ccccc2c1-c1ccccc1 -3.53%
COc1ccc(Cc2noc(CN(C)CCN3CCc4ccccc4C3)n2)cc1OC -15.1%
CC(C)C12CN3CC(C(C)C)(CN(C1)C31C(=O)Nc3ccccc31)C2=O (stereo unspecified) 12.6%
CCN(CC)CC(=O)Nc1c(C)cccc1C -1.23% and 1.16%
CC(=O)CSc1ncnc2c1cnn2-c1ccccc1 1.69%
COc1ccc(C(=O)CC2OC(=O)c3c2ccc(OC)c3OC)cc1 (stereo unspecified) 5.73%
CC(=O)OCC(=O)[C@@]12OC(C)(C)O[C@@H]1C[C@H]1[C@@H]3C[C@H](F)C4=CC(=O)C=C[C@]4(C)[C@@]3(F)[C@@H](O)C[C@@]12C 7.75%
COc1ccc(/C=C\c2cc(OC)c(OC)cc2CC[N+](C)(C)C)cc1OC -8.14%
c1ccc2c(CC3=NCCN3)cccc2c1 8.61%
O=C(N/N=C\c1cc([N+](=O)[O-])ccc1N1CCOCC1)c1ccccn1 -5.86%
CCOc1ccc(C(=O)N2CCCC2C(=O)O)cc1 (stereo unspecified) -15.5%
Cc1cn([C@H]2C=C[C@@H](CO)O2)c(=O)[nH]c1=O -9.36%
CC(=O)NS(=O)(=O)c1ccc(N)cc1 -2.29%
O=C1CC(c2ccc(O)cc2)Oc2cc(O)cc(O)c21 (stereo unspecified) -2.96%
Cn1cc(CN2CCCC(CO)(Cc3cccc(Cl)c3)C2)cn1 (stereo unspecified) -7.83%
COc1cc(CNCCc2ccccc2F)ccc1OCC(=O)N1CCCCC1 2.63%
CC(O)Cn1cnc2c1c(=O)n(C)c(=O)n2C (stereo unspecified) 5.74%
O=C(NC(=S)N1CCCCC1)c1cccnc1 6.65%
CC(C)C12CN3CC(C(C)C)(CN(C1)C3c1ccccc1O)C2=O (stereo unspecified) -20.9%
NS(=O)(=O)c1cc2c(cc1C(F)(F)F)NCNS2(=O)=O 5.18%
CCOC(=O)/C=C1\NC(C)(C)Cc2cc(OC)c(OC)cc21 -1.93%
CC12CN3CC(C)(CN(C1)C3c1ccc(Br)cc1O)C2 (stereo unspecified) -9.36%
O=S(=O)(NCCCCCNS(=O)(=O)c1ccccc1)c1ccccc1 0.743%

Random excerpt: 4 records from the list, in no set order.
Growth inhibition, inactive:
O=C1N=c2ccccc2=C1c1[nH]c(=S)[nH]c1O -4.23%
CCOc1ccccc1Oc1coc2cc(OCC(=O)O)ccc2c1=O -4.8%
CC[N+](C)(CC)CCOC(=O)C(O)(c1ccccc1)C1CCCCC1 (stereo unspecified) -1.82%
O=C(O)CCCCCCCC(=O)O -4.17%

Reprinted from the results shown, 4 compounds:
Growth inhibition, inactive:
CC(=O)Nc1ccc(OS(=O)(=O)c2c(C)cc(C)cc2C)cc1 10.9%
CC(=O)OCC(=O)[C@@]1(O)CC[C@H]2[C@@H]3CCC4=CC(=O)CC[C@]4(C)[C@H]3[C@@H](O)C[C@@]21C -11%
COc1ccc(OC)c(-c2oc3ccccc3c(=O)c2O)c1 -8.17%
Cc1nc2ccccc2c(=O)n1N -6.14%
